{
  "source": "patent US9393186B2",
  "about": "(Lipotec, S.A., priority 2006, dated 2016)",
  "assay": "general procedure: Fmoc solid-phase peptide synthesis; Fmoc-AM-MBHA",
  "settings": "whole synthesis, gradient 5 to 95% MeCN (+0.07% TFA) in H2O (+0.1% TFA), scale 0.5 mmol",
  "note": "Square brackets hold non-standard residues; d marks the D form. Cit = NC(=O)NCCC[C@H](N)C(=O)O",
  "data": [
    {"substance": "H-KDV[Cit]-NH2", "values": [
      {"measurement": "crude HPLC purity", "value": "greater than 70%"}
    ]}
  ]
}
